Among all 320,000 compounds or so, about 22,000 (6.9%) were called active. Inconclusive means that the source gave no clear call. Such entries were picked first, then a sample of the others. Calls follow the shape of the dose curve; as a rule, active = well fitted inhibition curve with a large enough effect; inconclusive = small, poorly fitted or top-dose-only effect, or another doubt; inactive = no such curve, though single readings can be large or run the other way. Potencies of inconclusive entries are doubtful fits and often do not repeat.
Experiment: Primary qHTS for delayed death inhibitors of the malarial parasite plastid, 96 hour incubation
Details: P. falciparum luciferase reporter growth; series mostly up to 28.7 µM; activity change, negative = inhibition: at the top concentration
Summary of the method: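 Infected RBCs, 2% Hct / 0.05% parasitemia final; luciferase-reporter P. falciparum; cpd 96 h, 37 C, 5% CO2; luciferase detection reagent; luminescence.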
% is scaled to controls: 0 for no effect and ±100 for the full control effect; potency is read from the fitted curve at half-maximal effect.

Structure (SMILES)	Potency	activity change, negative = inhibition
CCOc1ccc(C2=Cc3cc(OC)c(OC)cc3C(=C(Cl)Cl)O2)cc1	inconclusive: 18.5 µM [inhibitor, single point]	–
FC(F)(F)c1ccc(/C=N/N2CCN(Cc3ccccc3)CC2)cc1	–	inactive: 9.35%
CCCn1c(O)c(N=NC(=O)c2cccnc2)c2cc(Br)ccc21	active: 5.86 µM	–
Nc1cc[n+](CC(=O)Nc2ccccc2)cc1	–	inactive: 10.9%
C(=N\N1CCN(Cc2ccccc2)CC1)/c1ccc(-c2ccccc2)cc1	–	inactive: 19%
COc1ccc(C)cc1N(CC(=O)N/N=C/c1ccccc1C(=O)O)S(=O)(=O)c1ccccc1	inconclusive: 5.86 µM [inhibitor, partial curve, poor fit]	–
Cc1cc(-c2ccc([N+](=O)[O-])cc2)nc2ccccc12	–	inactive: 118%
CC1=CC(C)(C)N2C(=O)C3(NCCc4c3[nH]c3ccccc43)c3cc(C)cc1c32 (stereo not given)	inconclusive: 0.104 µM [inhibitor, full curve, poor fit]	–
N#CNC(=Nc1ccccc1F)SCc1ccc(C(=O)O)cc1	inconclusive: 3.29 µM [inhibitor, full curve, poor fit]	–
COC(=O)C1=C(C)NC(c2c(O)ccc3ccccc23)C(C(=O)OC)=C1C (stereo not given)	inconclusive: 14.7 µM [inhibitor, single point]	–
Cc1nc(/N=C(\N)NC(=O)NC2CCCCC2)nc2ccccc12	active: 3.29 µM	–
O=C(Nc1ccccc1)Nc1ccc2nnsc2c1	inconclusive: 2.94 µM [inhibitor, single point]	–
C=CCN(c1ccccc1)S(=O)(=O)c1cccc(C(=O)NCC(c2cccs2)N2CCOCC2)c1 (stereo not given)	inconclusive: 14.7 µM [inhibitor, partial curve]	–
CCN1CCN(CCNC(=O)c2cn(Cc3ccccc3F)nn2)CC1	inconclusive: 7.38 µM [inhibitor, partial curve, poor fit]	–
CCOC(=O)c1sc2nc(CC(=O)OC)nc(NCCN(CC)CC)c2c1C	inconclusive: 18.5 µM [inhibitor, single point]	–
CCOC(=O)C1CCN(C(=O)C(=O)N2CCC(C(=O)OCC)CC2)CC1	–	inactive: 3.65%
COc1ccc(C2(CNC(=O)/C=C/c3ccco3)CCCC2)cc1OC	inconclusive: 10.4 µM [inhibitor, single point]	–
CC(C)Sc1nnc(CNC(=O)C23CC4CC(CC(C4)C2)C3)n1C1CCCCC1	–	inactive: 21.1%
N#CCC(=O)Nc1ccc(C(=O)NCCc2c[nH]c3ccccc23)cc1	active: 7.38 µM	–
O=C(CSc1ncnc2c1oc1ccccc12)N1CCCc2ccccc21	inconclusive: 9.28 µM [inhibitor, partial curve, poor fit]	–

In a second layout: 5 of the compounds above
Structure (SMILES),Potency,"activity change, negative = inhibition"
CCCn1c(O)c(N=NC(=O)c2cccnc2)c2cc(Br)ccc21,active: 5.86 µM,–
C(=N\N1CCN(Cc2ccccc2)CC1)/c1ccc(-c2ccccc2)cc1,–,inactive: 19%
N#CNC(=Nc1ccccc1F)SCc1ccc(C(=O)O)cc1,"inconclusive: 3.29 µM [inhibitor, full curve, poor fit]",–
C=CCN(c1ccccc1)S(=O)(=O)c1cccc(C(=O)NCC(c2cccs2)N2CCOCC2)c1 (stereo not given),"inconclusive: 14.7 µM [inhibitor, partial curve]",–
N#CCC(=O)Nc1ccc(C(=O)NCCc2c[nH]c3ccccc23)cc1,active: 7.38 µM,–
